# Reference: US20250249144A1, “PEPTIDE AMPHIPHILE SUPRAMOLECULAR POLYMERS FOR SPRAY DELIVERY AND TISSUE REGENERATION APPLICATIONS” (The University of Southern Mississippi, priority 2024, published 2025)
# The name of at least one read-out is uncertain. Non-standard residues stand in square brackets, D forms with d. Residues, ends and D or L forms follow the SMILES beside them. ξ: configuration not given here. *: point of attachment. Palmitoyl = CCCCCCCCCCCCCCCC(=O)*; ξV = CC(C)C(N)C(=O)O
# Experiment: six-step oscillatory strain test of self-healing (rheology)
# Type: physicochemical
# Conditions: ionically gelled; alternating low strain 0.01% and high strain 400% (FIG. 12)
smiles,measurement,value
CCCCCCCCCCCCCCCC(=O)NC(C(=O)N[C@H](C(=O)NCC(=O)N[C@@H](C)C(=O)NCC(=O)N[C@@H](C)C(=O)N[C@H](CCC(=O)O)C(=O)N[C@@H](CCC(=O)O)C(=O)N[C@H](CCC(=O)O)C(N)=O)C(C)C)C(C)C (stereo partly shown) [diluent PA] (Palmitoyl-[ξV]VGAGA[dE]E[dE]-NH2),elastic modulus recovery / self-healing after high strain,near complete property recovery
